From publication PMC9724358
These are yes or no findings as the source states them, for the method shown. In cells and extracts the contact can be indirect. Some entries that bind do so weakly or less than the wild type. Blank lines part the entries; values can stand above or below the binder they belong to.

Biological target: T1, Elongation factor Tu GTP binding domain containing 2, from plasmid (UniProt Q15029)
T1 sequence: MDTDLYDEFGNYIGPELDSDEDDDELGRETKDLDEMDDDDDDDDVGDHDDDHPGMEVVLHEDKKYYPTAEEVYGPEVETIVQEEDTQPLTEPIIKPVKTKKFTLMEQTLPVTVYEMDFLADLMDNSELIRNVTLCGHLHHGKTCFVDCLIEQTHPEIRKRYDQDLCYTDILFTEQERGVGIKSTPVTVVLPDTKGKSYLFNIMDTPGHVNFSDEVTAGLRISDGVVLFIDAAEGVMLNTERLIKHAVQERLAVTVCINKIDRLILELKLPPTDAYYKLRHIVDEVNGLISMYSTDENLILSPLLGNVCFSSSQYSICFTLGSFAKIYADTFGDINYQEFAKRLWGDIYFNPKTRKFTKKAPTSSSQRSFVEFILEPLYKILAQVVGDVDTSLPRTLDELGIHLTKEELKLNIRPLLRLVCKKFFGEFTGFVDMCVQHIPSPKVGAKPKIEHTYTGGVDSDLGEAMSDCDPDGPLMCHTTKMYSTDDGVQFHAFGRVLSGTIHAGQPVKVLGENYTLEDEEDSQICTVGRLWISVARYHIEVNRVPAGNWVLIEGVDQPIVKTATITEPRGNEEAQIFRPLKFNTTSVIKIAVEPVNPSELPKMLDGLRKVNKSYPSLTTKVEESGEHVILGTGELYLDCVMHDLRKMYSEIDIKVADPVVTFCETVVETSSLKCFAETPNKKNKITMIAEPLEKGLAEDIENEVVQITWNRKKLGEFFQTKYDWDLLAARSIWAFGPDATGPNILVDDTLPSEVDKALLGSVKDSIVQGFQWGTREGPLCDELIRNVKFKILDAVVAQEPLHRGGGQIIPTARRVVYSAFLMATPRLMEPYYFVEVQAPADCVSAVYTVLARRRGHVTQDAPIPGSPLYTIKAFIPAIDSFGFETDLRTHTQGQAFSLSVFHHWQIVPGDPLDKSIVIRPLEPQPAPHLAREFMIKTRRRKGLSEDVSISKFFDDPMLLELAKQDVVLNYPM
Assay: co-IP; 293T cells co-transfected with two plasmids (10 ug each) for 48 h; weak strength RIPA lysis buffer, agarose A/G beads, Western blot

binding: binds
B1: Phosphofructokinase, liver type, from plasmid (enzyme, UniProt P17858 1-780)
chain: MAAVDLEKLRASGAGKAIGVLTSGGDAQGMNAAVRAVTRMGIYVGAKVFLIYEGYEGLVEGGENIKQANWLSVSNIIQLGGTIIGSARCKAFTTREGRRAAAYNLVQHGITNLCVIGGDGSLTGANIFRSEWGSLLEELVAEGKISETTARTYSHLNIAGLVGSIDNDFCGTDMTIGTDSALHRIMEVIDAITTTAQSHQRTFVLEVMGRHCGYLALVSALASGADWLFIPEAPPEDGWENFMCERLGETRSRGSRLNIIIIAEGAIDRNGKPISSSYVKDLVVQRLGFDTRVTVLGHVQRGGTPSAFDRILSSKMGMEAVMALLEATPDTPACVVTLSGNQSVRLPLMECVQMTKEVQKAMDDKRFDEATQLRGGSFENNWNIYKLLAHQKPPKEKSNFSLAILNVGAPAAGMNAAVRSAVRTGISHGHTVYVVHDGFEGLAKGQVQEVGWHDVAGWLGRGGSMLGTKRTLPKGQLESIVENIRIYGIHALLVVGGFEAYEGVLQLVEARGRYEELCIVMCVIPATISNNVPGTDFSLGSDTAVNAAMESCDRIKQSASGTKRRVFIVETMGGYCGYLATVTGIAVGADAAYVFEDPFNIHDLKVNVEHMTEKMKTDIQRGLVLRNEKCHDYYTTEFLYNLYSSEGKGVFDCRTNVLGHLQQGGAPTPFDRNYGTKLGVKAMLWLSEKLREVYRKGRVFANAPDSACVIGLKKKAVAFSPVTELKKDTDFEHRMPREQWWLSLRLMLKMLAQYRISMAAYVSGELEHVTRRTLSMDKGF

binding: binds
B2: YTH domain family protein 3, from plasmid (protein, UniProt Q7Z739 1-585)
chain: MSATSVDQRPKGQGNKVSVQNGSIHQKDAVNDDDFEPYLSSQTNQSNSYPPMSDPYMPSYYAPSIGFPYSLGEAAWSTAGDQPMPYLTTYGQMSNGEHHYIPDGVFSQPGALGNTPPFLGQHGFNFFPGNADFSTWGTSGSQGQSTQSSAYSSSYGYPPSSLGRAITDGQAGFGNDTLSKVPGISSIEQGMTGLKIGGDLTAAVTKTVGTALSSSGMTSIATNSVPPVSSAAPKPTSWAAIARKPAKPQPKLKPKGNVGIGGSAVPPPPIKHNMNIGTWDEKGSVVKAPPTQPVLPPQTIIQQPQPLIQPPPLVQSQLPQQQPQPPQPQQQQGPQPQAQPHQVQPQQQQLQNRWVAPRNRGAGFNQNNGAGSENFGLGVVPVSASPSSVEVHPVLEKLKAINNYNPKDFDWNLKNGRVFIIKSYSEDDIHRSIKYSIWCSTEHGNKRLDAAYRSLNGKGPLYLLFSVNGSGHFCGVAEMKSVVDYNAYAGVWSQDKWKGKFEVKWIFVKDVPNNQLRHIRLENNDNKPVTNSRDTQEVPLEKAKQVLKIIATFKHTTSIFDDFAHYEKRQEEEEAMRRERNRNKQ
